PubChem BioAssay AID504786 | Drosophila RNAi Screening Center, 2011
In all, the deposit lists about 21,000 reagents; below is a random part of those that have a named target and a result. 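Primary screen; positive scores mean lost reporter signal, so the sign may be inverted from the usual convention.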 A plus sign joins genes that one reagent is predicted to hit. No sequences are given here.

Aim: 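Positive regulators of HIF-driven reporter output in Drosophila cells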 (primary screen)
Cell system: Drosophila S2 cells with a stable HIF luciferase reporter
Knock-down reagent: long dsRNA against Drosophila genes, about 0.2 µg dsRNA per well of a 384-well plate
Time to read-out: three days of knock-down, then 20 h of DFO before reading
Treatment: desferrioxamine (DFO) at 100 µM, an iron chelator that mimics hypoxia, for 20 h
Measurement: 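HIF reporter luminescence in cells given 100 µM DFO for 20 h, using the mouse ldh-a hypoxia-response element, scored as per-plate z-scores; higher means greater loss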
Scale: z-score: higher = stronger loss of HIF reporter signal

no.	Target gene	DRSC id	z-score, replicate 1	z-score, replicate 2	z-score, replicate 3	z-score, replicate 4
1	mRpL50	DRSC11015	-0.2	0.2		
2	CG31251	DRSC16247	-0.4	0.2		
3	Hk	DRSC17638	0.7	-0.1		
4	Hk	DRSC18138	-0.2	-0.7		
5	Hk	DRSC18674	3.5	1.3		
6	CG14219	DRSC19576	-0.2	-0.3		
7	CG3544	DRSC00613	-0.3	-0.4		
8	cbt	DRSC00655	-0.3	-0.2		
9	PIG-B	DRSC08216	-0.3	-0.4	-0.2	-0.2
10	CG13124	DRSC02220	-0.2	-0.4		
11	CG7985	DRSC14128	-0.2	-0.7		
12	CG14778	DRSC17953	-0.2	-0.8		
13	Rab40	DRSC19820	-0.4	0.5		
14	CG13858 (retired record)	DRSC14708	-0.2	-0.3		
15	CG13858 (retired record)	DRSC14709	0.2	-0.9		
16	CG13858 (retired record)	DRSC14710	0	-0.2		
17	CG13858 (retired record)	DRSC14711	1.1	-0.3		
18	Cyp309a2	DRSC00526	0	0		
19	Or71a	DRSC11244	-0.2	-0.3		
20	bocks	DRSC16489	-0.3	-0.5		
21	CG1701	DRSC06641	-0.2	-0.3		
22	CG15570	DRSC18058	-0.3	-0.5		
23	egg	DRSC04119	0.4	1.5		
24	Lnpk	DRSC07254	-0.1	-0.1		
25	Tti1	DRSC15163	0	0.4		
26	Sik3	DRSC06505	-0.6	0.6		
27	Sik3	DRSC06771	-0.2	-0.8		
28	CG11584	DRSC19408	-0.3	0.1		
29	CG7367	DRSC03049	-0.3	-0.3		
30	ppk5	DRSC11492	-0.3	-0.1		
31	Polr1B	DRSC00780	0.1	1.1		
32	CG10853	DRSC08164	-0.2	0.8		
33	CG3008	DRSC00560	-0.2	-0.1		
34	CG3306	DRSC10357	-0.1	-0.2		
35	CG2765	DRSC04315	-0.2	0.8		
36	CG5172	DRSC19936	0.1	0.4		
37	rogdi	DRSC10906	-0.3	0		
38	Snap29	DRSC04721	-0.4	-0.9		
39	CG4278	DRSC02741	-0.3	-0.2		
40	oys	DRSC05203	0.5	0.8		
41	oys	DRSC06751	-0.3	-0.4		
42	cv-2	DRSC03861	0.3	0.4		
43	cv-2	DRSC04261	-0.2	-0.3		
44	Femcoat	DRSC18061	-0.2	-0.2		
45	Lipt2	DRSC12338	-0.3	-0.3	0	-0.2
46	CG14000	DRSC02332	-0.3	0		
47	Ak3	DRSC16075	-0.3	-0.5		
48	CG5418	DRSC02857	0.2	-0.1		
49	Rbsn-5	DRSC03094	-0.4	-0.8		
50	14-3-3epsilon	DRSC16370	0.1	1.1		
51	CG10336	DRSC02037	-0.4	-0.5		
52	Atg2	DRSC08273	-0.2	-0.3		
53	CG13931	DRSC08400	-0.3	-0.3		
54	mbm	DRSC00319	-0.3	-0.4		
55	BBS4	DRSC06352	0	-0.1		
56	CG14626	DRSC18631	-0.3	-0.1		
57	CG15767	DRSC18073	-0.3	-0.6		
58	CG13108	DRSC02206	-0.3	-0.3		
59	pip	DRSC11382	-0.2	-0.2		
60	CG13950	DRSC00368	-0.3	-0.4		
61	dpy	DRSC00233	-0.1	-0.4		
62	dpy	DRSC00234	-0.1	-0.1		
63	dpy	DRSC00472	-0.2	-0.4		
64	CG15408	DRSC00423	0	0.1		

A portion taken from the entries so far, for reference:
no.	Target gene	DRSC id	z-score, replicate 1	z-score, replicate 2	z-score, replicate 3	z-score, replicate 4
36	CG5172	DRSC19936	0.1	0.4		
37	rogdi	DRSC10906	-0.3	0		
38	Snap29	DRSC04721	-0.4	-0.9		
39	CG4278	DRSC02741	-0.3	-0.2		
40	oys	DRSC05203	0.5	0.8		

The results go on:
no.	Target gene	DRSC id	z-score, replicate 1	z-score, replicate 2	z-score, replicate 3	z-score, replicate 4
65	CG3483	DRSC04371	-0.2	-0.6		
66	pps	DRSC16057	0.2	0		
67	CNT1 + CG13742	DRSC06413	-0.1	-0.4		
68	CG32240	DRSC08093	-0.1	-0.6		
69	CG13193	DRSC06318	-0.4	-0.6		
70	Oatp58Da	DRSC04365	-0.1	-0.3		
71	CG3301	DRSC15471	-0.2	-0.2		
72	RpL37-2	DRSC04584	-0.4	-0.4		
73	CG18814	DRSC10347	-0.1	-0.2		
74	CG13954	DRSC06442	-0.3	-0.5		
75	Reph	DRSC00634	-0.4	-0.3		
76	CrebB	DRSC20232	-0.3	-0.8		
77	Pkd2	DRSC02962	-0.2	-0.2		
78	CG17580	DRSC06683	-0.3	-0.5		
79	TFAM	DRSC15552	0	-0.6		
80	CG32225	DRSC09657	-0.2	0.3		
81	Art4	DRSC15779	-0.2	-0.3		
82	CG15483	DRSC02493	-0.2	-0.3		
83	alph	DRSC15398	-0.3	-0.3		
84	coro	DRSC05007	-0.3	-0.2		
85	Prosbeta7	DRSC12186	4.4	4.5		
86	CG5597	DRSC04517	0.1	-0.1		
87	CG12581	DRSC12206	-0.3	-0.6		
88	CG12581	DRSC12207	-0.3	-0.5		
89	Jupiter	DRSC15204	0	0.8		
90	Jupiter	DRSC15205	-0.4	-0.4		
91	Jupiter	DRSC15389	-0.3	-0.1		
92	CG7215 + Prx5	DRSC16214	0	-0.1		
93	CG7215 + Prx5	DRSC16215	-0.3	-0.4		
94	E2f2	DRSC03320	-0.3	-0.9		
95	CG33080	DRSC18080	-0.2	-0.5		
96	CG33080	DRSC18081	-0.2	-0.6		
97	CG33080	DRSC18285	-0.2	0		
98	CG10663	DRSC09770	-0.3	0.1		
99	Or22a	DRSC00764	0.1	-0.3		
100	CG12081	DRSC17802	-0.3	-0.2		
101	bsh	DRSC03498	-0.2	-0.3		
102	scramb1	DRSC09724	-0.2	-0.2		
103	scramb1	DRSC10667	-0.2	0		
104	scramb1	DRSC10668	-0.3	0.9		
105	CG15743	DRSC19709	-0.1	0		
106	Alg1	DRSC15297	-0.2	-0.7		
